Some entries share one result that the patent states for a list of compounds.
Tested on: H929 (Multiple Myeloma)
Assay: Tumor growth inhibition study, H929 bearing female SCID mice
Type: in vivo
Details: PCI-24781 12 mg/kg BID IP 5 d/wk; bendamustine 5.0 mg/kg qd IP 2 d/wk
Method: Mice inoculated subcutaneously in the right hind flank with H929 MM cells at a density of 1×10^7 cells in a volume of 100 μL/mouse 4 groups of animals (n=8/group) received vehicle (BID, IP, 5 d/wk), PCI-24781 alone (12 mg/kg BID, IP, 5 d/wk), bendamustine alone 5.0 mg/kg (qd, IP, 2 d/wk Tu, Th) or the combination. Body weights and tumor measurements were collected a minimum of 2 times each week for all animals. Blood and tumor samples were collected at study termination for pharmacodynamic evaluations.

## Cn1c(CCCC(=O)O)nc2cc(N(CCCl)CCCl)ccc21 [bendamustine]
  body weight losses at the end of the study: < 2.2%
